In one series the test system is PKCξ. The note with it: read-out: IC50 for PKCξ; no reference given; cited from earlier work.
A further series has as its system PKCδ. The note with it: read-out: IC50 for PKCδ; no reference given; cited from earlier work.
The nature of series [1]: Tumour tissue concentrations by HPLC with fluorescence detection. Type of series: in vivo, human. The conditions noted are these: tumour tissue to plasma, individual subjects. On the procedure: Plasma concentrations of midostaurin and its two main metabolites CGP 62221 and CGP52421 e2 were determined using an HPLC method with fluorescence detection as reported previously ([Van Gijn et al, 1995]; [Propper et al, 2001]). […] Therefore, the tumour tissue was frozen and cut into as small as possible pieces with a scalpel. The pieces were weighed, added to 1 ml of water, vortexed and thereafter treated like plasma. The assay for plasma samples was validated with acceptable calibration curves, within-study variability and total recovery. The limit of quantitation (LOQ) in these analyses (defined as the concentration of the lowest QC sample with a mean recovery of 80–120% and a CV ⩽20%) was 36 nmol l^−1 for MIDOSTAURIN, 61 nmol l^−1 for CGP 62221, and 265 nmol l^−1 for CGP52421 e2. Due to limited availability of tumour tissue, the within-study validation for tumour assay was not performed. […] The LOQ in tissue homogenate was 48 nmol l^−1 for midostaurin, 82 nmol l^−1 for CGP 62221, and 357 nmol l^−1 for CGP52421 e2.

The test system of another series is PKC. The conditions noted are these: one patient only (Patient 10), day 28 biopsy.

Values joined by “and” are separate entries in the source; they are usually repeats but may differ in a detail not shown here. Equal values may be shown once. A value given as a limit tells only on which side of the number the result lay.

The text below walks through data of paper PMC2360547, “The multikinase inhibitor midostaurin (PKC412A) lacks activity in metastatic melanoma: a phase IIA clinical and biologic study” (British Journal of Cancer, 2006).

Consider `CO[C@@H]1[C@H](N(C)C(=O)c2ccccc2)C[C@H]2O[C@]1(C)n1c3ccccc3c3c4c(c5c6ccccc6n2c5c31)C(=O)NC4` [Midostaurin, N-benzoyl-staurosporine], for which the IC50 in the series with PKCξ is over 1000 µM; in the series with PKCδ, 0.36 µM. Further, the Tissue/plasma ratios in series [1] was 0.02 and 0.37 and 0.35 and 0.20 and 1.86 and 0.23 and 0.87 and 0.16 and 1.32. Besides, the “Inhibition of PKC activity in both cytosolic and particulate fractions” value with PKC is given as over 50%.

In general, IC50 refers to the concentration that inhibits the measured activity by half.
